# In PubChem BioAssay AID743255 (National Center for Advancing Translational Sciences (NCATS), 2014):
# The chains behind the UniProt entries cited, without tags or fusion partners. Where a name states a change or a piece, a line headed by the entry shows the natural chain unless it says otherwise.
# UniProt O94782: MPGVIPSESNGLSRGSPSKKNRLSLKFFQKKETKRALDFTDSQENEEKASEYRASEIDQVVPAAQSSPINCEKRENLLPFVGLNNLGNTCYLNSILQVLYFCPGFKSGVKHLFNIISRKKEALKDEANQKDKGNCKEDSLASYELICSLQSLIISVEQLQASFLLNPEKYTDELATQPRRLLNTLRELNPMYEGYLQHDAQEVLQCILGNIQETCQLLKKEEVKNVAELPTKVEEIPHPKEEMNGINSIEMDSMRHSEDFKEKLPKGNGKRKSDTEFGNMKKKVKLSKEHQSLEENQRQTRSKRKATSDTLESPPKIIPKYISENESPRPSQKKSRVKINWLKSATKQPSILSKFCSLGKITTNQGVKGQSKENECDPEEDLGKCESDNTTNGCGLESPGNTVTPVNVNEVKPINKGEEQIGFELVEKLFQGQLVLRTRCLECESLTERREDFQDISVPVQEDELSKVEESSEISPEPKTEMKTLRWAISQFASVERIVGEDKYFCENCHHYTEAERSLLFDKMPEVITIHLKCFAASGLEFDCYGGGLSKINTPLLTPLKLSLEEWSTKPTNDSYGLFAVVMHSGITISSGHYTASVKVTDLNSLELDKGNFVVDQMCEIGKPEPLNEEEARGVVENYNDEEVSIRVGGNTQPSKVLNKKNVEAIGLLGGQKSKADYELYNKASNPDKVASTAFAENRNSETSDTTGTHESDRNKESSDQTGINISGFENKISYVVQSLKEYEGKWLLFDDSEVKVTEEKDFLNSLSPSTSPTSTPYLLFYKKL
# The campaign covered roughly 390,000 compounds. About 910 (0.23%) were called active. This list was built around the results that the source calls inconclusive (neither active nor inactive); the mix of calls is not that of the screen. Calls come from the whole dose curve; as a rule, active = well fitted inhibition curve with a large enough effect; inconclusive = small, poorly fitted or top-dose-only effect; inactive = no such curve, though single readings can be large or run the other way. A potency beside an inconclusive call is a rough fit, not a confirmed value.
# Target: Ubiquitin carboxyl-terminal hydrolase 1 (Homo sapiens) (UniProt O94782)
# Assay: Inhibitors of USP1/UAF1: Primary Screen; note: nearly all actives have a fitted effect of over 60% in size
# Conditions: recombinant USP1/UAF1, Ub-Rhodamine cleavage fluorescence; activity change, negative = inhibition: at 57.1 µM (top of the series)
# Summary of the method: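 In this screen, compounds sit with the deubiquitinase complex (1nM) for 15 min at room temperature before Ub-Rho is added at 150nM final. Fluorescence rise is then followed for 6 reads every 60 seconds.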
# % is set by controls: 0 for no effect and ±100 for the full control effect; potency is the fitted concentration of half-maximal effect.
SMILES,"activity change, negative = inhibition",Potency
O=C(Nc1nc2ccc(F)cc2s1)c1nc(S(=O)(=O)Cc2ccccc2F)ncc1Cl,inactive: -27.7%,
COc1cccc(OCC(=O)O/N=C(\N)c2ccncc2)c1,,"inconclusive: 10 µM [inhibitor, partial curve, poor fit]"
Cc1noc(C)c1C(=O)N(C)C[C@@H]1OCc2ccccc2-c2c(n(C)c3ccccc23)C(=O)N([C@H](C)CO)C[C@H]1C,,"inconclusive: 0.251 µM [inhibitor, full curve, poor fit]"
O=C1CCc2cc(S(=O)(=O)N3CCC(C(=O)NC4CCCCCCC4)CC3)ccc2N1,,"inconclusive: 1.78 µM [inhibitor, partial curve, poor fit]"
CC1=C(C(=O)Nc2cc(Cl)ccc2C)C(c2sccc2C)n2ncnc2N1 (configuration not stated),,"inconclusive: 0.316 µM [inhibitor, full curve, poor fit]"
NCCCC[C@H]1CNC(=O)C(=O)N1CCc1cccc(F)c1,,"inconclusive: 0.708 µM [inhibitor, full curve]"
CCOc1ccccc1NC(=O)CSc1nc2nc(-c3cccs3)cc(C(F)(F)F)c2c(=O)[nH]1,inactive: -5.28%,
COc1ccc2sc(-c3ccc(N(C)C)cc3)c(C#CCCO)c2c1,,"inconclusive: 100 µM [inhibitor, partial curve, poor fit]"
Cc1c(C(=O)Nc2ccc(F)c(C(F)(F)F)c2)sc2nc(-c3ccccc3)cn12,,"inconclusive: 0.501 µM [inhibitor, partial curve, poor fit]"
COc1cc(CNC2CCCC2)c(Br)cc1OCc1ccccc1,,"inconclusive: 10 µM [inhibitor, full curve, poor fit]"
O=C(N/N=C/c1ccc(Sc2ccccn2)o1)c1cc2ccccc2cc1O,,"inconclusive: 39.8 µM [inhibitor, partial curve]"
Cc1cc(N/N=C/c2cccc(F)c2)nc(NCc2ccccc2)n1,inactive: -6.53%,
COc1ccc(/C=C/C(=O)NC(=S)Nc2ccc(S(=O)(=O)N=C(N)N)cc2)cc1OC,,"inconclusive: 1.41 µM [inhibitor, full curve, poor fit]"
COc1ccc(NC2=C(c3ccccc3)C(=O)c3ccccc32)cc1Cl,,"inconclusive: 2.24 µM [inhibitor, full curve, poor fit]"
CCCCC[C@@H]1C=C(C(=O)O)[C@H](c2ccc(CC)cc2)N1S(=O)(=O)c1ccc(C)cc1,inactive: -2.99%,
Cc1noc(C)c1CN1C(=O)c2ccc([N+](=O)[O-])cc2C1=O,,"inconclusive: 35.5 µM [inhibitor, single point]"
COc1ccc(CN(C)C(=O)c2ccc(OCC(=O)Nc3cccc(C(F)(F)F)c3)c(OC)c2)cc1,,"inconclusive: 20 µM [inhibitor, partial curve]"
CCOc1ccc(-c2nc(CSCC(=O)NCCc3ccc(OCC)c(OCC)c3)c(C)o2)cc1,inactive: -12.3%,
CCn1c(=O)c(=O)n(CC)c2cc(N3CCCCC3)c(NC(=O)c3ccccc3OC)cc21,inactive: -8.82%,
O=C(N=C1SCC(=O)N1c1ccccc1Cl)c1ccco1,,"inconclusive: 39.8 µM [inhibitor, partial curve, poor fit]"
Cc1c(C(=O)N(C)C)sc2c1c(=O)n(-c1ccc(Cl)c(Cl)c1)c(=O)n2CC(=O)N1CCCCC1C (configuration not stated),inactive: -11.5%,

# At a glance, 2 of the compounds above.
SMILES,"activity change, negative = inhibition",Potency
Cc1noc(C)c1C(=O)N(C)C[C@@H]1OCc2ccccc2-c2c(n(C)c3ccccc23)C(=O)N([C@H](C)CO)C[C@H]1C,,"inconclusive: 0.251 µM [inhibitor, full curve, poor fit]"
O=C1CCc2cc(S(=O)(=O)N3CCC(C(=O)NC4CCCCCCC4)CC3)ccc2N1,,"inconclusive: 1.78 µM [inhibitor, partial curve, poor fit]"

# Retrieved one by one from the list above (2):
SMILES,"activity change, negative = inhibition",Potency
CC1=C(C(=O)Nc2cc(Cl)ccc2C)C(c2sccc2C)n2ncnc2N1 (configuration not stated),,"inconclusive: 0.316 µM [inhibitor, full curve, poor fit]"
CCOc1ccccc1NC(=O)CSc1nc2nc(-c3cccs3)cc(C(F)(F)F)c2c(=O)[nH]1,inactive: -5.28%,

# (list continues)

SMILES,"activity change, negative = inhibition",Potency
COc1ccc(-c2c(C#Cc3ccsc3)c3cc(-c4ccc(OC)nc4)ccc3n2C)cc1,,"inconclusive: 2.24 µM [inhibitor, full curve, poor fit]"
Cc1cc(C)nc(NS(=O)(=O)c2ccc(CC(C)C)cc2)c1,inconclusive: -11.8% [inhibitor],
CCCN(CCC)Cc1c(C(=O)N/N=C/c2ccc(Br)cc2)nnn1-c1nonc1N,,"inconclusive: 0.562 µM [inhibitor, full curve, poor fit]"
C#CCOCCOCCOCCNc1nc(N2CCN(C(=O)CCCCCCCCCCNC(=O)Cn3cc(C[C@@H](C)O)nn3)CC2)nc(N2CCN(C(=O)CCCCCCCCCCNC(=O)Cn3cc(C[C@@H](C)O)nn3)CC2)n1,,"inconclusive: 4.47 µM [inhibitor, partial curve]"
Cc1cccc(OCCNc2cc(N3CCN(CCO)CC3)ccc2[N+](=O)[O-])c1,inactive: -5.13%,
CCS(=O)(=O)c1oc(-c2ccc(F)cc2)nc1S(=O)(=O)c1ccccc1,,"inconclusive: 0.708 µM [inhibitor, full curve]"
COc1ccc(OC)c(CNC(=O)c2ccc3c(c2)c(C)c(C)n3C)c1,,"inconclusive: 35.5 µM [inhibitor, partial curve]"
Cc1ccc(S(=O)(=O)N2CCN(C(=O)c3c(C)nn(-c4ccccc4)c3Cl)CC2)cc1,,"inconclusive: 3.55 µM [inhibitor, partial curve]"
CCOc1cc(CNC(=O)c2ccc3nc(C(C)C)oc3c2)cc(OCC)c1OCC,,"inconclusive: 50.1 µM [inhibitor, partial curve, poor fit]"
Cc1ccc(NC2=C(N3CCCCC3)C(=O)c3ccccc3C2=O)cc1,,"inconclusive: 17.8 µM [inhibitor, partial curve, poor fit]"
OC(COc1ccc2c(c1)OCO2)CN1CCCC1 (configuration not stated),,"inconclusive: 0.282 µM [inhibitor, full curve, poor fit]"
CC1(C)CC(=O)C(=Cc2cn(CCC#N)nc2-c2ccc(Cl)cc2)C(=O)C1,inactive: -13.9%,
Fc1ccc(C2=CC(c3ccco3)n3ncnc3N2)cc1 (configuration not stated),,"inconclusive: 39.8 µM [inhibitor, partial curve]"
O=C(CCn1nnc2ccccc21)N1CCC(O)(c2cccc(F)c2)CC1,inactive: -9.99%,
CN(C)C(=O)c1ccc2c(c1)N(CC(=O)NCc1ccccc1Cl)C(=O)C1CCCCN21 (configuration not stated),inactive: -20%,
Cc1nc(SCC(=O)NCC2CCCO2)c2oc3ccccc3c2n1 (configuration not stated),,"inconclusive: 0.891 µM [inhibitor, full curve, poor fit]"
O=C1Nc2ccccc2N=C(c2ccccc2)C1N1CCOCC1 (configuration not stated),inactive: -16.4%,
CC(C)C[C@H](NC(=O)c1[nH]cnc1C(=O)N[C@@H](Cc1ccccc1)C(=O)OC(C)(C)C)C(=O)OC(C)(C)C,,"inconclusive: 44.7 µM [inhibitor, partial curve]"
O=C(CSCc1cnn(-c2ccccc2)c1-n1cccc1)NCc1cccc(Cl)c1,inactive: -9.66%,
COc1ccc(-c2cc(C(F)(F)F)c3c(n2)sc2c(O)cc(=O)[nH]c23)c(OC)c1,,"inconclusive: 28.2 µM [inhibitor, partial curve]"
CCc1ccc(NC(=O)CSC2=C(C#N)C(c3ccco3)C3=C(CCCC3=O)N2)cc1 (configuration not stated),inactive: -20.1%,

SMILES,"activity change, negative = inhibition",Potency
N#Cc1c(-n2ncnc2-c2ccc(F)cc2)sc2c1CCCCC2,,"inconclusive: 8.91 µM [inhibitor, partial curve, poor fit]"
Cc1cc(OCc2nc(-c3cccs3)no2)cc(C)c1Cl,,"inconclusive: 0.794 µM [inhibitor, full curve, poor fit]"
Cc1ccc(N(Cc2ccccc2F)S(C)(=O)=O)c(C)c1,,"inconclusive: 0.251 µM [inhibitor, full curve, poor fit]"
COc1ccc(CNC(=O)c2cc3ccccn3n2)cc1OC,,"inconclusive: 0.631 µM [inhibitor, full curve, poor fit]"
COc1ccc(Cl)cc1CNC[C@H]1O[C@@H](n2ccc(N)nc2=O)[C@H](O)[C@@H]1O,,"inconclusive: 0.251 µM [inhibitor, full curve, poor fit]"
COc1cc(NC(=O)Cn2c(=O)ccc3cc(S(=O)(=O)N4CCCC4)ccc32)cc(OC)c1,inactive: -30%,
CSC1=NCCN1C(=O)Cc1ccc(-c2ccccc2)cc1,,"inconclusive: 31.6 µM [inhibitor, partial curve]"
O=C(CSc1ncccn1)Nc1ccc(Cl)c(S(=O)(=O)N2CCOCC2)c1,,"inconclusive: 1 µM [inhibitor, full curve, poor fit]"
Cc1ccc(C)c(N2CCN(C(=O)C3CCCN(c4ncnc5c4nc4n5CCCCC4)C3)CC2)c1 (configuration not stated),,"inconclusive: 44.7 µM [inhibitor, partial curve]"
NS(=O)(=O)c1ccc(CCNCc2cc(Br)ccc2OCc2ccccc2F)cc1,inactive: -25.9%,
CCN(CC)C(=O)C1=C(C)N(Cc2ccc(OC)cc2)C(=O)C(CC(=O)NCCCCc2ccccc2)C1 (configuration not stated),,"inconclusive: 50.1 µM [inhibitor, partial curve, poor fit]"
O=C(CCn1nnc(-c2cccs2)n1)NCc1ccccc1Cl,,"inconclusive: 28.2 µM [inhibitor, single point]"
CCCc1nnc2n1N=C(c1ccc(OC)c(OC)c1)CS2,,"inconclusive: 39.8 µM [inhibitor, partial curve]"
Cc1cc(C)cc(OCC(=O)O/N=C(\N)Cc2ccc([N+](=O)[O-])cc2)c1,,"inconclusive: 4.47 µM [inhibitor, single point]"
Cc1nn2c(=O)cc(COC(=O)c3cccs3)nc2s1,,"inconclusive: 79.4 µM [inhibitor, partial curve, poor fit]"
Cc1cc(C)n(-c2c(F)c(F)c(CO)c(F)c2F)n1,,"inconclusive: 0.251 µM [inhibitor, full curve, poor fit]"
Cc1ccc(NS(=O)(=O)c2ccc3c(c2)NC(=O)C(C)C(=O)N3)cc1C (configuration not stated),,"inconclusive: 8.91 µM [inhibitor, partial curve, poor fit]"
O=C(Cn1cnnn1)OCC(=O)c1ccc(Cl)s1,inactive: -10.4%,
Cc1c(C(=O)N(C)Cc2ccccc2)oc2c(Cl)cccc12,,"inconclusive: 28.2 µM [inhibitor, partial curve]"
CCCSc1ncc(Cl)c(C(=O)Nc2nc3ccc(C)cc3s2)n1,,"inconclusive: 50.1 µM [inhibitor, partial curve, poor fit]"
